Measured values from PubChem BioAssay AID504834 (National Center for Advancing Translational Sciences (NCATS), 2011).
The whole screen tested about 320,000 compounds, of which about 22,000 (6.9%) were called active. Inconclusive results, whose numbers are uncertain, are shown with a selection of clear calls. Calls follow the shape of the dose curve; as a rule, active = well fitted inhibition curve with a large enough effect; inconclusive = small, poorly fitted or top-dose-only effect, or another doubt; inactive = no such curve, though single readings can be large or run the other way. Potencies of inconclusive entries are doubtful fits and often do not repeat.

Assay: Primary qHTS for delayed death inhibitors of the malarial parasite plastid, 96 hour incubation
Conditions: P. falciparum luciferase reporter growth; series mostly up to 28.7 µM
How it was run: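 96 h incubation, 37 C, 5% CO2, of luciferase-reporter P. falciparum-infected RBCs (2% hematocrit, 0.05% parasitemia final) with test compounds; endpoint luminescence.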
% is scaled to controls: 0 for no effect and ±100 for the full control effect; potency is read from the fitted curve at half-maximal effect.

| Compound | Potency | activity change, negative = inhibition |
| --- | --- | --- |
| COc1ccc(COC(=O)NNC(=O)c2ccc(OC)cc2)cc1 | inconclusive: 13.1 µM [inhibitor, single point] | – |
| C/C(=N/NC(=O)c1ccc(Cl)s1)c1ccc(NC(=O)COc2ccc(Cl)cc2)cc1 | inconclusive: 2.62 µM [inhibitor, full curve, poor fit] | – |
| Cc1nc(N2CCOCC2)c2c(C)c(C(=O)Nc3ccc(F)cc3F)sc2n1 | inconclusive: 9.28 µM [inhibitor, partial curve, poor fit] | – |
| O=C(NCc1csc2ccccc12)Nc1cc(Cl)cc(Cl)c1 | inconclusive: 18.5 µM [inhibitor, single point] | – |
| COC(=O)C1=CN(C(C)c2ccccc2)C=C(C(=O)OC)C1c1cc(OC)c(OC)c(OC)c1 (stereo not drawn) | inactive | – |
| COc1cc(NS(=O)(=O)c2ccc(NC(=O)c3ccco3)cc2)nc(OC)n1 | inconclusive: 10.4 µM [inhibitor, single point] | – |
| CN(CCOc1ccc(Cl)cc1)C(=O)c1cc(-c2ccco2)nc2ccccc12 | inconclusive: 18.5 µM [inhibitor, partial curve, poor fit] | – |
| CCCCNc1c(-c2cccc(SC3CCCCC3)c2)nc2ccc(Cl)cn12 | inconclusive: 3.29 µM [inhibitor, partial curve, poor fit] | – |
| C=CCNC(=S)N1CCN(c2cc3c(cc2F)c(=O)c(C(=O)O)cn3CC)CC1 | active: 2.33 µM | – |
| Cc1ccc(C(=O)OC(C)C(=O)N(C)C2CCCCC2)cc1S(=O)(=O)N1CCCCC1 (stereo not drawn) | inconclusive: 9.28 µM [inhibitor, partial curve] | – |
| FC(F)(F)c1cccc(NC(=S)NCc2ccccc2)c1 | active: 3.29 µM | – |
| COC(=O)CNC(=O)c1cn(CCC#N)nc1-c1ccc(F)cc1 | inconclusive: 18.5 µM [inhibitor, single point] | – |
| O=C(Nc1ccc(NC(=O)C2CCCCC2)nc1)c1ccccn1 | inactive | – |
| Cc1cccc(NC(=O)NC2CCCc3ccccc32)c1 (stereo not drawn) | inactive | – |
| COc1ccc(N2CCN(C(c3cc(OC)ccc3OC)c3nnnn3Cc3ccco3)CC2)cc1 (stereo not drawn) | inconclusive: 0.0415 µM [inhibitor, full curve, poor fit] | – |
| O=C(CSc1ccc2nnc(-c3ccccn3)n2n1)Nc1ccc2c(c1)OCO2 | active: 1.85 µM | – |
| Cc1ccc(C(=O)NCC(=O)O)cc1S(=O)(=O)N1CCCCC1 | inactive | – |
| CCN(CC)CCCn1c2c(c(SCC(=O)Nc3cc(C)on3)nc1=O)CCC2 | inactive | – |
| Cc1ccc(NC(=O)CCSCCC(=O)Nc2ccc(C)c(C)c2)cc1C | inconclusive: 0.104 µM [inhibitor, full curve, poor fit] | – |
| CSCCCN1CCCC(CO)(Cc2ccc(F)cc2)C1 (stereo not drawn) | inconclusive: 18.5 µM [inhibitor, single point] | – |
| CC(C)(O)[C@H]1O[C@H]2CC[C@@]3(C)[C@@](O)(CC[C@H]4Cc5c([nH]c6ccccc56)[C@@]43C)C2=CC1=O | inconclusive: 11.7 µM [inhibitor, partial curve] | – |
| COc1ccccc1CN(C)C(=O)c1ccccc1Sc1ccccc1C#N | inconclusive: 18.5 µM [inhibitor, single point] | – |
| CCCCN(C)CC(O)Cn1cc(/C=C/C(=O)c2ccc(OCC)cc2)c2ccccc21 (stereo not drawn) | inconclusive: 3.29 µM [inhibitor, partial curve, poor fit] | – |

| Compound | Potency | activity change, negative = inhibition |
| --- | --- | --- |
| COc1ccc(-n2ncc3c(=O)n(CC(=O)NC(C)C)cnc32)cc1 | active: 7.38 µM | – |
| CCCCC(=O)NCCc1ccc(S(N)(=O)=O)cc1 | – | inactive: -7.18% [at 5.75 µM] |
| Brc1ccc(/C=N/Nc2nc3ccccc3o2)cc1 | inconclusive: 1.04 µM [inhibitor, full curve, poor fit] | – |
| CC(=O)NCCC(=O)N(C)CC1CCN(CCc2cccc(C(F)(F)F)c2)CC1 | inconclusive: 13.1 µM [inhibitor, single point] | – |
| O=C(OCC(=O)c1ccc(Cl)s1)c1cnccn1 | inactive | – |
| CCN(CC)S(=O)(=O)c1cccc(-c2nnc(SCCOc3ccccc3C)o2)c1 | inconclusive: 1.47 µM [inhibitor, partial curve, poor fit] | – |
| COc1ccc(OC)c(-c2csc(NC(=O)Cc3ccc(OC)c(OC)c3)n2)c1 | inactive | – |
| CCC(C)[C@H]1CNC(=S)N1CCc1cc(C(F)(F)F)cc(C(F)(F)F)c1 (stereo partly drawn) | inconclusive: 2.33 µM [inhibitor, partial curve, poor fit] | – |
| COc1cc(C(C(=O)NC2CCCCC2)N(Cc2ccco2)C(=O)c2cnccn2)cc(OC)c1OC (stereo not drawn) | inactive | – |
| Cc1cccc(Nc2nc(-c3ccc4c(c3)OCCO4)cs2)c1 | inactive | – |
| CCOC(=O)NC1(Nc2ccc(Cl)cn2)Oc2ccccc2O1 | inconclusive: 11.7 µM [inhibitor, single point] | – |
| COc1cc(/C=C2\CC(C(C)(C)C)C/C(=C\c3cc(OC)c(OC)c(OC)c3)C2=O)cc(OC)c1OC (stereo not drawn) | inconclusive: 4.65 µM [inhibitor, partial curve] | – |
| COc1ccc(/C=N\NC(=O)COc2ccccc2Cl)cc1Cn1nc(C)cc1C | inconclusive: 9.28 µM [inhibitor, single point] | – |
| CC1OC(NCCc2ccccc2)C(O)C(O)C1O (stereo not drawn) | inconclusive: 10.4 µM [inhibitor, single point] | – |
| O=C(CCCn1c(=O)[nH]c2ccsc2c1=O)NC1CCCCC1 | inconclusive: 13.1 µM [inhibitor, partial curve] | – |
| CCn1cc(Br)c(C(=O)N2CCN(c3ccccc3)CC2)n1 | inactive | – |
| O=S(=O)(c1ccccc1)c1nc(-c2ccccc2Cl)oc1NCCN1CCOCC1 | inconclusive: 18.5 µM [inhibitor, single point] | – |
| CC(=S)/C=C1\Sc2ccccc2N1C | inconclusive: 2.33 µM [inhibitor, partial curve, poor fit] | – |
| CN(C(=O)c1cccnc1)c1nnc(-c2cccnc2)s1 | inconclusive: 5.86 µM [inhibitor, partial curve, poor fit] | – |
| CC(=C\c1ccccc1)/C=C1/SC(=S)N(C(C(=O)O)C(C)C)C1=O (stereo not drawn) | inactive | – |
| COc1cc2c(cc1OC)CN(C(=O)c1ccc(S(=O)(=O)N3CCCCC3)cc1)CC2 | inconclusive: 16.5 µM [inhibitor, single point] | – |
| O=C(NCC1CCCO1)c1sc2cc(Cl)ccc2c1Cl (stereo not drawn) | inconclusive: 3.7 µM [inhibitor, partial curve, poor fit] | – |
| CC(C)c1ccc(S(=O)(=O)N2CCN(C(C)C(=O)N3CCCC3)CC2)cc1 (stereo not drawn) | active: 11.7 µM | – |

| Compound | Potency | activity change, negative = inhibition |
| --- | --- | --- |
| CCN1CNC(=S)N(Cc2ccccc2)C1 | inconclusive: 11.7 µM [inhibitor, single point] | – |
| N#Cc1c(NC(=O)c2ccc(Cn3cc(Br)cn3)o2)sc2c1CCCCC2 | inconclusive: 13.1 µM [inhibitor, single point] | – |
| CCOC(=O)c1c(C=O)c2ccccc2n1CC | inconclusive: 10.4 µM [inhibitor, single point] | – |
| COc1ccccc1CC(=O)N1CCN(c2ccccn2)CC1 | inconclusive: 3.29 µM [inhibitor, full curve, poor fit] | – |
| CC(C)CCNC(=O)C1(c2cccs2)CCOCC1 | inactive | – |
| COC(=O)c1cccc(NC(=O)c2ccc3c(c2)C(=O)N(Cc2cccnc2)C3=O)c1 | inconclusive: 11.7 µM [inhibitor, single point] | – |
| Cc1ccc(C(C(=O)NC(C)(C)C)N(Cc2cccs2)C(=O)c2ccc3c(c2)OCCO3)cc1 (stereo not drawn) | inactive | – |
| O=C1NC(=O)C2(Cc3c(nc4ccccn4c3=O)N3CCCCCC32)C(=O)N1Cc1ccccc1 (stereo not drawn) | active: 5.22 µM | – |
| O=S(=O)(c1ccc(F)cc1)N1CN2CCN(C2)C1 | inconclusive: 18.5 µM [inhibitor, single point] | – |
| COc1ccccc1C(=O)Nc1ccc(C(=O)/C=C/c2cccs2)cc1 | inconclusive: 2.94 µM [inhibitor, single point] | – |
| O=C(CN1C(=O)COc2ccccc21)NCCN1CCC(Cc2ccccc2)CC1 | inconclusive: 20.8 µM [inhibitor, partial curve, poor fit] | – |
| CC(CC(=O)Nc1cccc(F)c1)S(=O)(=O)c1ccc2c(c1)NC(=O)CO2 (stereo not drawn) | inactive | – |
| Cc1ccc(NC(=O)C2CCCN(c3ncnc4c3nc3n4CCCCC3)C2)cc1Cl (stereo not drawn) | inactive | – |
| Cc1cc(C(=O)NN=C(Cc2ccccc2)Cc2ccccc2)c(C)o1 | inactive | – |
| COc1ccc(Cl)cc1C(=O)NCCc1ccc(S(=O)(=O)NC(=O)NC2CCCCC2)cc1 | inconclusive: 18.5 µM [inhibitor, single point] | – |
| COc1ccc(C2Nc3ccccc3C(=O)N2c2ccccc2)cc1COc1ccccn1 (stereo not drawn) | inconclusive: 18.5 µM [inhibitor, single point] | – |
| COc1ccc(OCC(=O)Nc2ccc(N3CCC(C)CC3)cc2)cc1 | inactive | – |
| O=[N+]([O-])C(/C=C(/Cl)[N+](=O)[O-])=C(N1CCCCC1)N1CCCCC1 | active: 5.22 µM | – |
| C/C(=N\NC(=S)Nc1cc(S(=O)(=O)N2CCOCC2)ccc1Cl)c1ccc(N2CCOCC2)cc1 | active: 1.85 µM | – |
| O=C(CN1CCN(S(=O)(=O)c2ccc(Br)cc2)CC1)N/N=C/c1cc([N+](=O)[O-])ccc1Cl | inconclusive: 10.4 µM [inhibitor, single point] | – |
| CCOC(=O)C1(c2ccccc2)CCN(CCC(C#N)(c2ccccc2)c2ccccc2)CC1 | active: 1.9 µM | – |
| CC(C)(C)c1ccc(OCC(=O)Nc2ccc(-c3nc4cccnc4o3)cc2)cc1 | inconclusive: 20.8 µM [inhibitor, partial curve, poor fit] | – |

4 records drawn at random from the list so far, as already listed:

| Compound | Potency | activity change, negative = inhibition |
| --- | --- | --- |
| O=C(CN1CCN(S(=O)(=O)c2ccc(Br)cc2)CC1)N/N=C/c1cc([N+](=O)[O-])ccc1Cl | inconclusive: 10.4 µM [inhibitor, single point] | – |
| COc1ccccc1CC(=O)N1CCN(c2ccccn2)CC1 | inconclusive: 3.29 µM [inhibitor, full curve, poor fit] | – |
| Cc1cc(C(=O)NN=C(Cc2ccccc2)Cc2ccccc2)c(C)o1 | inactive | – |
| O=[N+]([O-])C(/C=C(/Cl)[N+](=O)[O-])=C(N1CCCCC1)N1CCCCC1 | active: 5.22 µM | – |
